Laboratory results taken from patent US10421725B2, “Alkoxyamines for the treatment of cancers” (Centre National De La Recherche Scientifique, priority 2013, dated 2019).

Assay: Monitoring of ALK-1 homolysis by Overhauser-enhanced MRI (OMRI)
Type: physicochemical
Settings: 0.8 mM, culture cell medium, 37° C.
Description: EPR Cavity and MRI devices. The OMRI experiment were done in a C-shaped 0.2 T MRI system (Magnetom Open Viva, Siemens, Erlangen, Germany) and a resonant TE011 transverse electric mode EPR cavity setup (Bruker, Wissembourg, France) as described previously. The EPR cavity, placed at the center of the magnet, was used to saturate the electron spin transition of the nitroxide SG1 produced upon ALK-1 homolysis. A homemade saddle-shaped MRI coil (28 mm in diameter and 29 mm in length) in the EPR cavity was used for imaging.
Electron spin saturation was carried out at 5.4573 GHz, corresponding to the first line at high field from the center of the EPR spectrum. The proton frequency was 8.24 MHz. Sample temperature was kept at 37° C.
OMRI experiments were performed in two NMR tubes (4 mm inner diameter): one containing 0.8 mM of SG1 nitroxide in phosphate buffer saline (not shown) and the other with 0.8 mM of ALK-1 in DMEM, 10% FCS. ALK-1 homolysis was followed for 48 hours.
Pulse sequences. […] All MR adjustments were done manually, using the same fixed receiver amplification gain for both measurements, without (Soff) and with (Son) HF irradiation, so that signals can be directly compared and Overhauser enhancements (Son/Soff) calculated.
Post-processing. […] Signal intensity was measured in a rectangular region of interest of 2 mm^2 positioned in the NMR tube area. […]

In the case of CCOP(=O)(OCC)C(N(OC(C)c1cc[n+](C)cc1)C(C)(C)C)C(C)(C)C (centres unmarked) [ALK-1, N-methyl 4-(1-((tert-butyl(1-(diethoxyphosphoryl)-2,2-dimethylpropyl)amino)oxy)ethyl)pyridin-1-ium 4-methylbenzenesulfonate], the OMRI signal amplification (at 5 mM (so in the source) after beginning of homolysis) was 1 fold and the OMRI signal amplification (at 2825 min after beginning of homolysis) was 6 fold.
